Source: PMC11257983 (2024)
No constants are given. Whether binding was seen depends on the method and setting. Binding seen in cells or lysates may run through a third protein. A result given as binding can be weak or reduced; the word gives no strength. Tags and fused reporters may be left off the sequences shown. Blank lines part the entries; values can stand above or below the molecule they belong to.

How the values were obtained:
[1] = target: T1, GST-HYP (Drosophila) (UniProt Q8ML92); experiment: pull-down; GST-HYP as bait, Flag-CNK^2–549 variants co-expressed in S2 cells without other pathway components (binary CNK–HYP interaction); total lysates, overnight at 4 °C; immunoblot
T1 sequence: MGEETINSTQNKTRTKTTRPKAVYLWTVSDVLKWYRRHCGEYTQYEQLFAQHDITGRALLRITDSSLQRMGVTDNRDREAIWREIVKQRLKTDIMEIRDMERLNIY

[2] = target: CNK^CRIC N96E (Flag-CNK^2–549 assumed) (Drosophila); experiment: pull-down; GST-HYP as bait, CNK, KSR and MEK variants co-expressed in S2 cells (Fig. 2c,d; Extended Data Fig. 7e); total lysates, overnight at 4 °C; immunoblot
[3] = target: CNK^CRIC R99E (Flag-CNK^2–549 assumed) (Drosophila); experiment: as above
[4] = target: CNK^SAM R46F (Flag-CNK^2–549 assumed) (Drosophila); experiment: as above
[5] = target: CNK^SAM Y76R (Flag-CNK^2–549 assumed) (Drosophila); experiment: as above

binding [1]: binds
Molecule: CNK^CRIC N82W (Flag-CNK^2–549 assumed) (Drosophila) (domain or fragment)

binding [1]: binds
Molecule: CNK^CRIC R99E (Flag-CNK^2–549 assumed) (Drosophila) (domain or fragment)

binding [1]: binds
Molecule: CNK^SAM R46F (Flag-CNK^2–549 assumed) (Drosophila) (domain or fragment)

binding [1]: binds
Molecule: CNK^SAM Y76R (Flag-CNK^2–549 assumed) (Drosophila) (domain or fragment)

binding [2]: binds | binding [3]: binds | binding [4]: binds | binding [5]: binds
B1: V5-KSR (protein, UniProt Q24171 1-966)
chain: MSSNNNAPASAPDTGSTNANDPISGSLSVDSNLVIIQDMIDLSANHLEGLRTQCAISSTLTQQEIRCLESKLVRYFSELLLAKMRLNERIPANGLVPHTTGNELRQWLRVVGLSQGTLTACLARLTTLEQSLRLSDEEIRQLLADSPSQREEEELRRLTRAMQNLRKCMESLESGTAASNNDPEQWHWDSWDRPTHIHRGSVGNIGLGNNSTASPRTHHRQHGVKGKNSALANSTNFKSGRQSPSATEELNSTQGSQLTLTLTPSPPNSPFTPSSGLSSSLNGTPQRSRGTPPPARKHQTLLSQSHVQVDGEQLARNRLPTDPSPDSHSSTSSDIFVDPNTNASSGGSSSNVLMVPCSPGVGHVGMGHAIKHRFTKALGFMATCTLCQKQVFHRWMKCTDCKYICHKSCAPHVPPSCGLPREYVDEFRHIKEQGGYASLPHVHGAAKGSPLVKKSTLGKPLHQQHGDSSSPSSSCTSSTPSSPALFQQRERELDQAGSSSSANLLPTPSLGKHQPSQFNFPNVTVTSSGGSGGVSLISNEPVPEQFPTAPATANGGLDSLVSSSNGHMSSLIGSQTSNASTAATLTGSLVNSTTTTSTCSFFPRKLSTAGVDKRTPFTSEYTDTHKSNDSDKTVSLSGSASTDSDRTPVRVDSTEDGDSGQWRQNSISLKEWDIPYGDLLLLERIGQGRFGTVHRALWHGDVAVKLLNEDYLQDEHMLETFRSEVANFKNTRHENLVLFMGACMNPPYLAIVTSLCKGNTLYTYIHQRREKFAMNRTLLIAQQIAQGMGYLHAREIIHKDLRTKNIFIENGKVIITDFGLFSSTKLLYCDMGLGVPHNWLCYLAPELIRALQPEKPRGECLEFTPYSDVYSFGTVWYELICGEFTFKDQPAESIIWQVGRGMKQSLANLQSGRDVKDLLMLCWTYEKEHRPQFARLLSLLEHLPKKRLARSPSHPVNLSRSAESVF

The remaining lines, values behind:

Molecule: CNK^CRIC N82E (Flag-CNK^2–549 assumed) (Drosophila) (domain or fragment)
binding [1]: binds

Molecule: CNK^CRIC N96E (Flag-CNK^2–549 assumed) (Drosophila) (domain or fragment)
binding [1]: binds

Molecule: CNK^CRIC Q84E (Flag-CNK^2–549 assumed) (Drosophila) (domain or fragment)
binding [1]: binds
